According to patent US20020061552A1:
These are yes or no findings as the source states them, for the method shown. Binding seen in cells or lysates may run through a third protein. Some entries that bind do so weakly or less than the wild type. Tags and fused reporters may be left off the sequences shown.

Amino acid sequences for entries named in this document (tags omitted). Residues count along the entry.
UniProt P51140, residues 166-338: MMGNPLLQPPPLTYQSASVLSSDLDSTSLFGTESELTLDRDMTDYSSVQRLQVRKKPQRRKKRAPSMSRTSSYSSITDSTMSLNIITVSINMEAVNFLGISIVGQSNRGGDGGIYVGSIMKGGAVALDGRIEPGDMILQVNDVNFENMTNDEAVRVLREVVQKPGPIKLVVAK

How the values were obtained:
[1] = biological target: GST fusion of the DM fragment of Drosophila Dvl (Drosophila) (UniProt P51140); assay: GST pull-down, electrophoresis and autoradiography
[2] = biological target: GST fusion of the DM fragment of Drosophila Dvl (Drosophila) (UniProt P51140); assay: GST pull-down with fragments of Dvl
[3] = biological target: GST fusion of the DM fragment of Drosophila Dvl (Drosophila) (UniProt P51140); assay: GST pull-down with fragments of Drosophila Dvl, Tris-Glycine gel

Measured: binding

B1: Myc-tagged mNkd protein, in vitro translated (protein, not shown: small tags and cut ends)
chain: MGKLHSKPAAVCKRRESPEGDSFAVSAAWARKGIEEWIGRQRCPGSVSGPRQLRLAGTVGRGTRELVGDTSREALGEEDEDDFPLEVALPPEKIDSLGSGDEKRMERLSEPGQASKKQLKFEELQCDVSVEEDSRQEWTFTLYDFDNNGKVTREDITSLLHTIYEVVDSSVNHSPTSSKTLRVKLTVAPDGSQSKRSVLFNHTDLQSTRPRADTKPAEELRGWEKKQRAPLRFQGDSHLEQPDCYHHCVDENIERRNHYLDLAGIENYTSQFGPGSPSVAQKSELPPRISNPTRSRSHEPEAAHIPHRRPQGVDPGSFHLLDTPFAKASELQQRLRGTQDGSKHFVRSPKAQGKNMGMGHGARGARSKPPLVPTTHTVSPSAHLATSPALLPTLAPLGHKKHKHRAKESQASCRGLQGPLAAGGSTVMGREQVRELPAVVVYESQAGQAVQRHEHHHHHHEHHHHYHHFYQP
modifications: labelled with 35S-methionine
binds: [1] | [2] | [3]
